Data: PubChem BioAssay AID493014 (National Center for Advancing Translational Sciences (NCATS), 2011)
The campaign covered roughly 340,000 compounds. About 170 (0.05%) were called active. Inconclusive means that the source gave no clear call. Such entries were picked first, then a sample of the others. Calls come from the whole dose curve; as a rule, active = well fitted inhibition curve with a large enough effect in the signal ratio, with a control signal flat (not every such curve was filed as active); inconclusive = small, poorly fitted or top-dose-only effect, or effect the other way, or a change in a side signal; inactive = flat fitted curve, though single readings scatter; the % refers to the signal ratio. Where the call is inconclusive, the potency comes from a doubtful curve fit.
Potency is the fitted concentration of half-maximal effect.

Assay: qHTS Assay to Find Inhibitors of Chronic Active B-Cell Receptor Signaling;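 for activity change, negative = inhibition: plate controls were basal doxycycline-induced cells for no effect and cells given 10 µM MG132 for full effect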
Details: ABC-DLBCL IkBa-CBG/CBR reporter, luminescence ratio (green luciferase fused to IkBa over red control in TMD8 lymphoma cells), 4 h; activity change, negative = inhibition: at 46.1 µM (top of the series)
Method in brief: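 Cell line TMD8 (human ABC DLBCL), stably expressing tet-inducible CBG68-IkBa fusion and CBR; IMDM/0.5% FBS; cpd up to 46 uM; dox induction, 4 h, 37C/5% CO2; dual luminescence; green/red ratio; MG132 control.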
For `Cc1cc(C)cc(N2Cc3ccccc3C2)c1`, the “activity change, negative = inhibition” value was inactive: -4.6%.
In the case of `Cc1cc(S(=O)(=O)NC2CCCCC2)ccc1-n1cnnn1`, the “activity change, negative = inhibition” value is reported as inactive: -0.66%.
For `O=C(NC(=S)Nc1ccc(CN2CCOCC2)cc1)c1ccc2c(c1)OCCO2`, the activity change, negative = inhibition was inconclusive: -14.7%.
With `O=C(Nc1ccc(NC(=O)c2ccccn2)cc1)C(=O)Nc1ccc2c(c1)OCCO2` the “activity change, negative = inhibition” value was inactive: 2.37%.
For `Cn1c(=O)c([N+](=O)[O-])c(Oc2ccccc2)c2ccccc21`, the Potency was inconclusive: 35.5 µM [falling, single point].
In the case of `COCCNC(=O)Cn1nc(-c2ccccc2)c2ccccc2c1=O`, the Potency is reported as inconclusive: 7.94 µM [rising, partial curve, poor fit] and the activity change, negative = inhibition is reported as inconclusive: 5.32%.
In the case of `O=C(CCOc1ccccc1)N1CCN(c2ccc(O)cc2)CC1`, the “activity change, negative = inhibition” value is reported as inactive: 1.52%.
In the case of `CCOC(=O)c1cnn(-c2ccc(C(F)(F)F)cn2)c1N`, the Potency is reported as inconclusive: 0.184 µM [rising, full curve, poor fit].
In the case of `CCc1cccc2c(C(=O)CSc3nncn3-c3ccccc3OC)c[nH]c12`, the Potency is reported as inconclusive: 23.1 µM [falling, partial curve].
For `O=C(NCCCn1ccnc1)c1cc(-c2cccc(O)c2)on1`, the activity change, negative = inhibition was inconclusive: -6.77%.
With `Cc1cccc(-n2ncc3c(NCc4ccco4)ncnc32)c1` the Potency was inconclusive: 0.206 µM [rising, full curve].
With `Nc1nc(N)c(N=O)c(OCC2CCCCC2)n1` the activity change, negative = inhibition was inconclusive: -8.69%.
In the case of `O=C(Nc1ccc2c(c1)CCCN2C(=O)c1ccco1)c1cc([N+](=O)[O-])ccc1Cl`, the Potency is reported as inconclusive: 29.1 µM [falling, single point].
With `O=C(Nc1ccccc1)Nc1cccc(C(F)(F)F)c1` the “activity change, negative = inhibition” value was inactive: 2.06%.
For `CCS(=O)(=O)c1ccc2oc(SCC(=O)NC3CCCC(C)C3C)nc2c1` (configuration not stated), the Potency was inconclusive: 6.51 µM [falling, single point].
With `O=C(O)CCCNc1c(C(=O)Nc2ccc(Cl)cc2)cc([N+](=O)[O-])cc1[N+](=O)[O-]` the activity change, negative = inhibition was inconclusive: -10.6%.
In the case of `COc1cc(S(=O)(=O)Nc2ccccc2C(=O)N2CCCCC2)ccc1NC(C)=O`, the activity change, negative = inhibition is reported as inconclusive: 3.16%.
In the case of `O=C(N/N=C/C=C/c1ccc2c(c1)OCO2)c1ccc([N+](=O)[O-])cc1`, the activity change, negative = inhibition is reported as inconclusive: -5.64%.
In the case of `Cc1cccc(N(C(=O)c2nsc(Cl)c2Cl)C(C(=O)NC2CCCC2)c2ccc(O)cc2)c1C` (configuration not stated), the activity change, negative = inhibition is reported as inconclusive: 4.42%.
For `O=C(O)CN1CCN(Cc2ccc(F)cc2)C1=O`, the activity change, negative = inhibition was inconclusive: -0.466%.
In the case of `CCCOc1ccc(-c2csc(N)n2)cc1[N+](=O)[O-]`, the Potency is reported as inconclusive: 29.1 µM [falling, single point].
